Data as given in PubChem BioAssay AID1508597 (Cure First, 2020)

Aim: 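Genes whose silencing sensitises or protects ovarian cancer cells against rucaparib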 (primary screen)
Cells: human ovarian carcinoma lines grown from tumours: OCI-P5x (papillary serous) and OCI-C5x (clear cell)
Reagent: siRNA pool against human genes, 1.25 pmol siRNA per well
Time to read-out: 72 h or 96 h, depending on the cell culture
Treatment: rucaparib 20 µM (about IC30) or vehicle, present until read-out
Rucaparib or vehicle: Vehicle
Cell line: OCI-P5x (serous)
Read-out: 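Luminescent ATP-based viability assay read 72 or 96 h after transfection, depending on culture, given as normalised percent viability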
Reading the numbers: viability, normalised: higher = more viable cells remaining
Rule for the call: 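a well counts as a hit if its normalised viability is under 80 percent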
Meaning of the calls: active = viability under 80%; inactive = viability 80% or more
This is a random part of the about 2,100 reagents, in one setting of the screen. 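Calls flag viability under 80% in either arm, not effects specific to rucaparib; the reference for percent is not stated.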 Unmarked entries are inactive. Not given: the 100% reference.

gene knocked down | technical replicate | viability, normalised (%)
PYGO2 | 1 | 46.8 (active)
PYGO2 | 2 | 42 (active)
PYGO2 | 3 | 65.6 (active)
EPHB3 | 1 | 70.9 (active)
EPHB3 | 2 | 40.6 (active)
EPHB3 | 3 | 36.3 (active)
CDKN2A | 1 | 48 (active)
CDKN2A | 2 | 53.2 (active)
CDKN2A | 3 | 37.4 (active)
TRDMT1 | 1 | 74.2 (active)
TRDMT1 | 2 | 86.2
TRDMT1 | 3 | 76.3 (active)
PRDM1 | 1 | 61.7 (active)
PRDM1 | 2 | 63.2 (active)
PRDM1 | 3 | 69 (active)
DEK | 1 | 41.6 (active)
DEK | 2 | 49.7 (active)
DEK | 3 | 43.8 (active)
XPC | 1 | 80.5
XPC | 2 | 76.1 (active)
XPC | 3 | 89.8
CHMP6 | 1 | 61 (active)
CHMP6 | 2 | 68 (active)
CHMP6 | 3 | 68.5 (active)

The list goes on, starting with the last 5 of the part before.
gene knocked down | technical replicate | viability, normalised (%)
XPC | 2 | 76.1 (active)
XPC | 3 | 89.8
CHMP6 | 1 | 61 (active)
CHMP6 | 2 | 68 (active)
CHMP6 | 3 | 68.5 (active)
PHF23 | 1 | 51.1 (active)
PHF23 | 2 | 54.9 (active)
PHF23 | 3 | 51.1 (active)
EPHB6 | 1 | 106
EPHB6 | 2 | 96.6
EPHB6 | 3 | 83.8
PTP4A2 | 1 | 65.9 (active)
PTP4A2 | 2 | 81
PTP4A2 | 3 | 91.4
DGKG | 1 | 80.7
DGKG | 2 | 76.7 (active)
DGKG | 3 | 76.8 (active)
PAK3 | 1 | 57.8 (active)
PAK3 | 2 | 76.5 (active)
PAK3 | 3 | 56.4 (active)
SND1 | 1 | 44.4 (active)
SND1 | 2 | 52.5 (active)
SND1 | 3 | 62.8 (active)
RIOK1 | 1 | 89.1
RIOK1 | 2 | 82.6
RIOK1 | 3 | 73.3 (active)
PRKCE | 1 | 83.5
PRKCE | 2 | 80.2
PRKCE | 3 | 89.5
MAP3K5 | 1 | 77.8 (active)
MAP3K5 | 2 | 96
MAP3K5 | 3 | 69 (active)
IGF2R | 1 | 35.9 (active)
IGF2R | 2 | 38.4 (active)
IGF2R | 3 | 51.2 (active)
ASH2L | 1 | 80
ASH2L | 2 | 76.6 (active)
ASH2L | 3 | 66.9 (active)
